# Values joined by “and” are separate entries in the source; they are usually repeats but may differ in a detail not shown here. Identical values can stand only once.
# Tested on: rhesus monkeys with spontaneous chronic kidney disease (CKD)
# Assay: Effect on UACR (proteinuria), 8-week oral administration
# Type: in vivo, Macaca mulatta (Rhesus Macaque)
# Conditions: per animal + Mean ± SD
# Method: CKD-EPI rating […]-G3b, glomerular filtration rate eGFR: 30 59 ml/min/1.73 m^2; or moderate to severe increase in proteinuria (A2-A3): urine albumin/creatinine ratio (UACR)>15 mg/g-350 mg/g (4-6 hour urine collection), vs. age-matched control group 3±2 mg/g. In the trial, animals were brought in three stages. […] ELISA kit was used for NT-proBNP test. [table]
# [1] = Valsartan group 2.67 mg/kg/time oral, 8 weeks
# [2] = 1 mg/kg oral once a day, 4 weeks
# [3] = 1 mg/kg oral once a day, 8 weeks
# [4] = 2 mg/kg oral once a day, 4 weeks
# [5] = 2 mg/kg oral once a day, 8 weeks
# [6] = 5 mg/kg oral once a day, 8 weeks
SMILES,Cr-U [1],Urine-Vol [1],Cr-U [2],Urine-Vol [2],Cr-U [3],Urine-Vol [3],Cr-U [4],Urine-Vol [4],Cr-U [5],Urine-Vol [5],Cr-U [6],Urine-Vol [6]
"CCCCC(=O)N(Cc1ccc(-c2ccccc2-c2nnn[nH]2)cc1)[C@H](C(=O)O)C(C)C [Valsartan, reference compound]",28.20 mg/dL and 206.27 mg/dL and 95.47 mg/dL and 109.98 ± 89.92 mg/dL,240 mL and 80 mL and 37 mL and 119 ± 107 mL,,,,,,,,,,
COC(=O)NCCCn1nc([C@@H](C)N(C(=O)[C@H]2CNCCO2)C2CC2)c2ccc(C)nc21.O=C(O)C[C@H](O)C(=O)O [malate of compound of Formula I],,,30.74 mg/dL and 121.39 mg/dL and 19.36 mg/dL and 108.29 mg/dL and 16.09 mg/dL and 59.17 ± 51.32 mg/dL,170 mL and 5 mL and 380 mL and 310 mL and 470 mL and 273 mL,26.02 mg/dL and 118.23 mg/dL and 25.52 mg/dL and 290.17 mg/dL and 17.93 mg/dL and 95.57 mg/dL,375 ml and 25 ml (2×) and 470 ml and 520 ml and 283 ml,32.18 mg/dL and 157.85 mg/dL and 41.80 mg/dL and 111.58 mg/dL and 66.89 mg/dL and 82.06 ± 52.33 mg/dL,330 mL and 20 mL and 320 mL and 60 mL and 85 mL and 163 mL,53.10 mg/dL and 33.60 mg/dL and 26.33 mg/dL and 116.29 mg/dL and 32.22 mg/dL and 52.31 mg/dL,77 mL and 260 mL and 420 mL and 60 mL and 265 mL and 216 mL,52.32 mg/dL and 21.19 mg/dL and 37.25 mg/dL and 128.11 mg/dL and 16.98 mg/dL and 61.60 mg/dL and 52.91 ± 40.68 mg/dL,60 mL and 400 mL and 90 mL and 25 mL and 380 mL and 115 mL and 178 ± 167 mL

# — patent US20230330093A1, “APPLICATION OF NITROGEN-CONTAINING SATURATED HETEROCYCLIC COMPOUND” (SHANGHAI PHARMACEUTICALS HOLDING CO., LTD., priority 2020, published 2023)
